These are yes or no findings as the source states them, for the method shown. For some assays here: In cells and extracts the contact can be indirect. Some entries that bind do so weakly or less than the wild type. Sequences can lack the tags named with a protein. One block for each binder: values may come before it.
Key:
[1] = target: T1, Ihog:RFP (wild-type Interference hedgehog tagged with RFP) (Drosophila melanogaster) (UniProt Q9VM64); experiment: co-IP
T1 sequence: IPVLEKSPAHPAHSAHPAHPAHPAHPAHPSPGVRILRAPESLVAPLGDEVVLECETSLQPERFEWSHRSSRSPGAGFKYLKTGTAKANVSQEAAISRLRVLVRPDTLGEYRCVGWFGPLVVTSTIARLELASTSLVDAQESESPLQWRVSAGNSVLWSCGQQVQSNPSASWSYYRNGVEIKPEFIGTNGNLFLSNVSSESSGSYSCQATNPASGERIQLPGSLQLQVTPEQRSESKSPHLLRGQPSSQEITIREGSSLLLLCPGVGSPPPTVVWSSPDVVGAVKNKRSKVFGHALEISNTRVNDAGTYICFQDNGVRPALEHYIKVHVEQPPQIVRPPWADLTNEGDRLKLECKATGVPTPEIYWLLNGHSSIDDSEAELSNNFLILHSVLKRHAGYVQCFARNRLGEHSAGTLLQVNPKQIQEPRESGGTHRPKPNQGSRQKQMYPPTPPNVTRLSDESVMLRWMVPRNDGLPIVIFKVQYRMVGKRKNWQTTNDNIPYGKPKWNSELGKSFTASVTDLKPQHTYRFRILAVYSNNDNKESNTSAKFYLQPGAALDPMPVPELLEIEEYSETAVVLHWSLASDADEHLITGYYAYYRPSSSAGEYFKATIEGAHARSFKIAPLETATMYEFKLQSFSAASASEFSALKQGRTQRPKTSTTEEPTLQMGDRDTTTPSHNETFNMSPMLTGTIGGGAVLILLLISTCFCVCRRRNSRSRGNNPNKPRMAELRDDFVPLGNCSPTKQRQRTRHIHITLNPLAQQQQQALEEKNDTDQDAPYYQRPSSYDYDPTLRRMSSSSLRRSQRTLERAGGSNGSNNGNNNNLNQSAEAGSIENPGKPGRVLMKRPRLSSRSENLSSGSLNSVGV

[2] = target: T1, Ihog:RFP (wild-type Interference hedgehog tagged with RFP) (Drosophila melanogaster); experiment: fluorescence imaging of tissue

- binding [1]: binds
B1: Shf:V5 (wild-type Shifted/DmWif1 tagged with V5) (protein, UniProt Q9W3W5 31-456)
chain: RQQHHNRNNNNNNRRADSSSSEEGHGNTSDGLDNFADQDASFVGHGHQPRRGQRKKQQGGGGGGSGGGGGNGGGGGSRHNRNEESGISLWINEQQLKMLTALYFPQGYSERLYAIHNSRVTNDLRDTTLYNFLVIPSEVNYVNFTWKSGRRKYFYDFDRLQTMDESILKAPTLSIRKSGRIPQEQKNFSIFLPCTGNSSGTASFNVGLKIQTRHNKPLSGTPIRLNFKKECAHRGVYDIDASNPTSLTTLQECSLKCGKNGYCNEHHICKCNVGYTGQYCETAFCFPQCLNGGNCTAPSVCTCPEGYQGTQCEGGICKDKCLNGGKCIQKDKCQCSKGYYGLRCEYSKCVIPCKNEGRCIGNNLCRCPNGLRGDHCEIGRKQRSICKCRNGTCVSHKHCKCHPGFYGRHCNGRKRRHVHRNDDSKF

- binding [2]: binds
B2: Shf:GFP (endogenous Shf tagged with GFP, shfGFP knock-in allele) (protein, UniProt Q9W3W5 31-456)
chain: B1 chain
